{
  "source": "the supplement of paper PMC12889115",
  "test_system": "Salmonella enterica serovar Typhimurium SL1344",
  "experiment": "bacterial growth OD600 after 18 h with compound and polymyxin B; higher = more bacterial growth (less inhibition)",
  "settings": "50 µM, Mueller-Hinton broth",
  "note": "The list shows a part of the results. These are raw signals, not scaled to a control.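 In the initial screen, polymyxin B was used at a concentration that permeabilizes Salmonella's outer membrane but not its inner membrane. Maximum growth was set by DMSO wells with or without polymyxin B. Since plates varied, data were ranked per plate, and compounds giving the lowest OD600 advanced as hits.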",
  "data": [
    {"compound": "Cc1ccccc1C1(CC(=O)N2CCN(CC(=O)NC(C)C)CC2)CC(=O)N(CCN(C)C)C1=O", "note": "(stereo unspecified)", "values": [
      {"measurement": "bacterial growth OD600", "setting": "polymyxin B 0.75 µg/mL", "value": 0.874}
    ]},
    {"compound": "CN(Cc1cccnc1)C(=O)CC(c1ccccc1)c1ccccc1Cl", "note": "(stereo unspecified)", "values": [
      {"measurement": "bacterial growth OD600", "setting": "polymyxin B 1 µg/mL", "value": 0.693}
    ]},
    {"compound": "CCC1CN(CCNC(=O)[C@H](CC(C)C)NC(C)=O)Cc2cc(OC)ccc2O1", "note": "(stereo partly specified)", "values": [
      {"measurement": "bacterial growth OD600", "setting": "polymyxin B 0.75 µg/mL", "value": 0.909}
    ]},
    {"compound": "O=C(c1cc[n+]([O-])cc1)N1CCC(C2CCN(Cc3cccc(F)c3F)CC2)C1", "note": "(stereo unspecified)", "values": [
      {"measurement": "bacterial growth OD600", "setting": "polymyxin B 0.75 µg/mL", "value": 0.874}
    ]},
    {"compound": "Cc1ccccc1SC1CCN(Cc2nc(-c3ccccc3)no2)CC1", "values": [
      {"measurement": "bacterial growth OD600", "setting": "polymyxin B 1 µg/mL", "value": 0.694}
    ]},
    {"compound": "COCC(=O)Nc1cnn(-c2ccc(C(=O)NCCc3ccccc3OC)cc2)c1", "values": [
      {"measurement": "bacterial growth OD600", "setting": "polymyxin B 0.75 µg/mL", "value": 0.805}
    ]},
    {"compound": "O=C(NCC1CC(Cc2ccc(F)cc2)=NO1)c1scc2c1CCCC2", "note": "(stereo unspecified)", "values": [
      {"measurement": "bacterial growth OD600", "setting": "polymyxin B 0.75 µg/mL", "value": 0.287}
    ]},
    {"compound": "COc1cc(CC2(CCC(=O)NCCc3cccc(Cl)c3)CCC(=O)N2)ccc1F", "note": "(stereo unspecified)", "values": [
      {"measurement": "bacterial growth OD600", "setting": "polymyxin B 0.75 µg/mL", "value": 0.816}
    ]},
    {"compound": "Cc1nc(N2CCCC(C(=O)NCC3COc4ccccc4O3)C2)nc2cc(S(C)(=O)=O)ccc12", "note": "(stereo unspecified)", "values": [
      {"measurement": "bacterial growth OD600", "setting": "polymyxin B 0.75 µg/mL", "value": 0.766}
    ]},
    {"compound": "CC(=O)NCC(=O)N1CCCC(CNC(=O)c2ccc(F)cc2)C1", "note": "(stereo unspecified)", "values": [
      {"measurement": "bacterial growth OD600", "setting": "polymyxin B 1 µg/mL", "value": 0.965}
    ]},
    {"compound": "COC(=O)[C@@H](NC(=O)c1cc(COc2cccc(OC)c2)on1)C(C)C", "values": [
      {"measurement": "bacterial growth OD600", "setting": "polymyxin B 0.75 µg/mL", "value": 0.751}
    ]},
    {"compound": "O=C1O[C@@H]2CN(Cc3cccc4cnccc34)C[C@@H]2N1CCc1ccc(F)cc1", "values": [
      {"measurement": "bacterial growth OD600", "setting": "polymyxin B 0.75 µg/mL", "value": 0.843}
    ]},
    {"compound": "CCOC(=O)CNC(=O)N1CCCC(CNS(=O)(=O)Cc2ccccc2)C1", "note": "(stereo unspecified)", "values": [
      {"measurement": "bacterial growth OD600", "setting": "polymyxin B 1 µg/mL", "value": 0.851}
    ]},
    {"compound": "CC(C)c1nccn1Cc1cc(C(=O)NCc2nc3ccccc3o2)n[nH]1", "values": [
      {"measurement": "bacterial growth OD600", "setting": "polymyxin B 1 µg/mL", "value": 1.18}
    ]},
    {"compound": "COc1ccc(CCN2CC(C(=O)N3CCC(c4ccncc4)CC3)CCC2=O)cc1", "note": "(stereo unspecified)", "values": [
      {"measurement": "bacterial growth OD600", "setting": "polymyxin B 1 µg/mL", "value": 0.842}
    ]},
    {"compound": "CCn1nc(C)cc1C(=O)NCc1cccnc1N(C)C", "values": [
      {"measurement": "bacterial growth OD600", "setting": "polymyxin B 1 µg/mL", "value": 0.911}
    ]},
    {"compound": "COc1ccccc1CC(=O)Nc1cnn(CC(=O)NCC2(c3ccccc3)CCCC2)c1", "values": [
      {"measurement": "bacterial growth OD600", "setting": "polymyxin B 0.75 µg/mL", "value": 0.691}
    ]},
    {"compound": "Cc1cccnc1CN1CCN(C(=O)C2CCN(c3nc(C)c4cc(C(C)C)ccc4n3)CC2)CC1", "values": [
      {"measurement": "bacterial growth OD600", "setting": "polymyxin B 0.75 µg/mL", "value": 0.8}
    ]},
    {"compound": "OC1(Cc2cc(-c3ccccc3)no2)CCN(Cc2cc(F)ccc2F)CC1", "values": [
      {"measurement": "bacterial growth OD600", "setting": "polymyxin B 1 µg/mL", "value": 0.842}
    ]},
    {"compound": "CN(c1ncccc1CNC(=O)C1CCOC1)C1CCCCC1", "note": "(stereo unspecified)", "values": [
      {"measurement": "bacterial growth OD600", "setting": "polymyxin B 1 µg/mL", "value": 0.906}
    ]},
    {"compound": "CC(=O)N1CCN(C(=O)CC(c2ccccc2)c2ccccc2Cl)CC1", "note": "(stereo unspecified)", "values": [
      {"measurement": "bacterial growth OD600", "setting": "polymyxin B 1 µg/mL", "value": 0.784}
    ]},
    {"compound": "O=C(CCN1CCCO1)NC1CCCN(c2ccc(C(F)(F)F)cn2)C1", "note": "(stereo unspecified)", "values": [
      {"measurement": "bacterial growth OD600", "setting": "polymyxin B 1 µg/mL", "value": 0.928}
    ]},
    {"compound": "Cc1cc(C(=O)N2CCC(C3CCN(CC(C)C)CC3)C2)n(C)n1", "note": "(stereo unspecified)", "values": [
      {"measurement": "bacterial growth OD600", "setting": "polymyxin B 0.75 µg/mL", "value": 0.821}
    ]},
    {"compound": "CCN1CCN(C2(C(=O)NC3CCc4ccccc43)Cc3ccccc3C2)CC1", "note": "(stereo unspecified)", "values": [
      {"measurement": "bacterial growth OD600", "setting": "polymyxin B 0.75 µg/mL", "value": 0.823}
    ]},
    {"compound": "O[C@H]1CN(Cc2ccc(-c3ccccc3)cc2)C[C@@H]1N1CCN(c2ccccn2)CC1", "values": [
      {"measurement": "bacterial growth OD600", "setting": "polymyxin B 1 µg/mL", "value": 1.18}
    ]},
    {"compound": "CCCC(=O)NC1CC(=O)N(Cc2ccccc2C(F)(F)F)C1", "note": "(stereo unspecified)", "values": [
      {"measurement": "bacterial growth OD600", "setting": "polymyxin B 1 µg/mL", "value": 0.867}
    ]},
    {"compound": "CCOc1ccccc1[C@@H]1C[C@H]2CN(C3Cc4ccccc4C3)C(=O)[C@]23CCCN13", "values": [
      {"measurement": "bacterial growth OD600", "setting": "polymyxin B 0.75 µg/mL", "value": 0.002}
    ]},
    {"compound": "COc1ccccc1-c1cc2c(c(OC)c1)OCCN(C(=O)c1ccco1)C2", "values": [
      {"measurement": "bacterial growth OD600", "setting": "polymyxin B 0.75 µg/mL", "value": 0.785}
    ]},
    {"compound": "CCOC(=O)N1CCN(Cc2nc(-c3cccc(C(F)(F)F)c3)oc2C)CC1", "values": [
      {"measurement": "bacterial growth OD600", "setting": "polymyxin B 1 µg/mL", "value": 0.916}
    ]},
    {"compound": "Cc1ncc2c(c1CNS(=O)(=O)c1cccs1)CCN(C(=O)CC1CCCC1)C2", "values": [
      {"measurement": "bacterial growth OD600", "setting": "polymyxin B 0.75 µg/mL", "value": 0.845}
    ]},
    {"compound": "CC(C)CNC(=O)c1cn(C(C)C)cc(C(=O)N(C)Cc2cccc3ccccc23)c1=O", "values": [
      {"measurement": "bacterial growth OD600", "setting": "polymyxin B 0.75 µg/mL", "value": 0.725}
    ]}
  ]
}
